The structures appear in SMILES notation. The list shows a part of the results.

The nature of the experiment: Confirmatory growth inhibition assay, mycobacterium tuberculosis h37rv, with cytotoxicity (AID 1332).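 Also: bacteria incubated 7 days before adding Alamar blue readout reagent.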 The following applies: M. tuberculosis H37Rv growth inhibition; measured here: IC50 H37Rv replicates.
In the case of `C/C1=C2N=C(/C=C3N=C(/C(C)=C4\[N-][C@@](C)([C@@H]5N=C1[C@](C)(CCC(=O)NC[C@@H](C)OP(=O)([O-])O[C@H]1[C@@H](O)[C@@H](n6cnc7cc(C)c(C)cc76)O[C@@H]1CO)[C@H]5CC(N)=O)[C@@](C)(CC(N)=O)[C@@H]4CCC(N)=O)[C@@](C)(CC(N)=O)[C@@H]\3CCC(N)=O)C(C)(C)[C@@H]/2CCC(N)=O.[C-]#N.[Co+3]`, the concentration for half-maximal inhibition (IC50) was above 20 µg/mL. In the case of `NC(=O)Nc1ccc([As](=O)(O)O)cc1`, the IC50 is above 20 µg/mL.

A word on the IC50: it is the concentration that gives 50% inhibition.

The record behind these values is PubChem BioAssay AID1332 (Southern Research Institute, 2008).
